PubChem BioAssay AID1259284 | Sanger Institute – 2017
Assay: 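Kinase knock-downs that cut colorectal cancer cell growth alone or with targeted drugs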 (primary screen). Cell system: SW48 human colorectal cancer cells. Reagents: siRNA pool against human genes. Treatment: anchor drug BYL719 at 1 µM, cetuximab at 5 µg/ml or trametinib at 10 nM, or DMSO vehicle alone. Detection: 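Viability scaled to non-targeting control pool, robust z-score from controls, and synergy scores for each drug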. Direction: robust z-score, no drug: higher = more cells survive knock-down; viability, no drug: higher = more viable cells; synergy with BYL719 and synergy with trametinib and synergy with cetuximab: higher = stronger combined killing with drug. Rule for the call: 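a knock-down is essential if viability without drug gives a robust z-score under -3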. Meaning of the calls: active = essential without drug; inactive = no change without drug.
In all, the deposit lists 794 reagents; shown is a random part of them. Over the whole deposit, 16 (2%) are marked active. 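Calls concern knock-down without drug only; drug synergy was judged apart, with scores above 0.15 taken as synergy.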 A number with no mark means an inactive call. Reagents against one gene are numbered here. No viability above 1 is reported: the scale is capped. The record does not give: the amount of reagent, the time to read-out.

Target gene	pool no.	robust z-score, no drug	viability, no drug (fraction of control)	synergy with BYL719	synergy with trametinib	synergy with cetuximab
NME7 (NME/NM23 family member 7)	1	0.426	1	-0.367	-0.341	-0.151
CAMKK2 (calcium/calmodulin dependent protein kinase kinase 2)	1	0.426	1	-0.256	-0.192	-0.0341
PANK2 (pantothenate kinase 2)	1	-1.76	0.812	-0.0873	-0.0981	-0.0196
CASK (calcium/calmodulin dependent serine protein kinase)	1	0.426	1	0.01	-0.0287	0.0303
PI4KB (phosphatidylinositol 4-kinase beta)	1	0.426	1	-0.32	-0.154	-0.165
MAP3K5 (mitogen-activated protein kinase kinase kinase 5)	1	0.426	1	-0.0376	0.0484	-0.118
TYRO3 (TYRO3 protein tyrosine kinase)	1	0.426	1	-0.127	-0.146	-0.16
CDK11B (cyclin dependent kinase 11B)	1	0.426	1	-0.097	-0.0819	-0.165
PKN2 (protein kinase N2)	1	-0.534	0.918	-0.21	-0.0391	-0.124
ILK (integrin linked kinase)	1	0.426	1	-0.232	-0.212	-0.0237
ILK (integrin linked kinase)	2	0.426	1	-0.0966	0.00832	-0.0327
PTEN (phosphatase and tensin homolog)	1	0.426	1	-0.365	-0.261	-0.0735
CDKN2B (cyclin dependent kinase inhibitor 2B)	1	0.426	1	-0.367	-0.305	-0.165
MAP3K10 (mitogen-activated protein kinase kinase kinase 10)	1	0.426	1	-0.202	-0.149	-0.165
TLK1 (tousled like kinase 1)	1	0.426	1	-0.0235	-0.0104	0.097
TRPM6	1	0.426	1	-0.247	-0.145	-0.165
PIM1 (Pim-1 proto-oncogene, serine/threonine kinase)	1	-0.231	0.944	0.0203	0.108	0.305
PFKFB4 (6-phosphofructo-2-kinase/fructose-2,6-biphosphatase 4)	1	0.426	1	-0.233	0.0627	-0.0562
PRKDC (protein kinase, DNA-activated, catalytic subunit)	1	-2.65	0.736	-0.0761	0.0407	0.0313
EPHA10 (EPH receptor A10)	1	-0.311	0.937	0.0581	0.0132	0.267
TTBK1 (tau tubulin kinase 1)	1	0.426	1	-0.301	-0.0776	-0.157

Reformatted: 4 of the entries above.
Target gene | pool no. | robust z-score, no drug | viability, no drug (fraction of control) | synergy with BYL719 | synergy with trametinib | synergy with cetuximab
TLK1 (tousled like kinase 1) | 1 | 0.426 | 1 | -0.0235 | -0.0104 | 0.097
TRPM6 | 1 | 0.426 | 1 | -0.247 | -0.145 | -0.165
PIM1 (Pim-1 proto-oncogene, serine/threonine kinase) | 1 | -0.231 | 0.944 | 0.0203 | 0.108 | 0.305
PFKFB4 (6-phosphofructo-2-kinase/fructose-2,6-biphosphatase 4) | 1 | 0.426 | 1 | -0.233 | 0.0627 | -0.0562

Further records:
Target gene	pool no.	robust z-score, no drug	viability, no drug (fraction of control)	synergy with BYL719	synergy with trametinib	synergy with cetuximab
CNOT1 (CCR4-NOT transcription complex subunit 1)	1	-6.22 (active)	0.43	-0.128	-0.071	-0.0749
MARK3 (microtubule affinity regulating kinase 3)	1	-0.624	0.91	-0.16	-0.0192	0.0609
MYO3A (myosin IIIA)	1	-1.42	0.842	-0.171	-0.177	-0.0665
PHKA2 (phosphorylase kinase regulatory subunit alpha 2)	1	0.426	1	-0.158	-0.0354	0.0395
STK33 (serine/threonine kinase 33)	1	0.426	1	-0.123	0.00385	-0.0647
CRIM1 (cysteine rich transmembrane BMP regulator 1)	1	0.426	1	-0.126	0.0423	-0.129
IRAK1 (interleukin 1 receptor associated kinase 1)	1	-0.19	0.947	-0.0271	0.233	-0.101
EPHA8 (EPH receptor A8)	1	0.426	1	-0.263	-0.118	-0.0733
GUCY2EP (guanylate cyclase 2E, pseudogene)	1	0.426	1	-0.0908	0.0178	0.047
IRAK3 (interleukin 1 receptor associated kinase 3)	1	-0.923	0.884	0.0913	0.136	0.16
KCNH2 (potassium voltage-gated channel subfamily H member 2)	1	-0.0684	0.958	-0.0796	0.0956	0.00839
RYK (receptor like tyrosine kinase)	1	0.426	1	-0.365	-0.101	-0.165
FGFR3 (fibroblast growth factor receptor 3)	1	0.0211	0.965	-0.167	-0.0762	-0.114
